Reference: US9220676B2, “Injectable in-situ crosslinked hydrogel and methods of making and using thereof” (Bioregen Biomedical (Changzhou) Co., Ltd., priority 2008, dated 2015)
At least one structure is not confirmed: it was looked up by name or label, or the drawing left a doubt.

Experiment: Release of corticosteroid from drug-containing in-situ crosslinked sodium hyaluronate hydrogel into phosphate buffer solution
Format: physicochemical
Conditions: 0.2 mL gel in 10 mL phosphate buffer solution, 37° C., 100 rpm, UV absorption of supernatant
Description: Into the 10 mL thiolated sodium hyaluronate solution prepared in Example 1 (pH 7.0, 1.0% w/v), 0.1-10 mg one type of corticosteroid (e.g. Beclomethasone, Beclomethasone dipropionate, Budesonide; Dexamethasone, Prednisolone or Prednisone) was added. The solution was mix uniformly and immediately filled into a 1 mL syringe which was then sealed and kept at room temperature. It was observed after one week that the solution sealed in the syringe had lost fluidity to form a gel.
0.2 mL gel containing drug as described above was filled into a 15 mL plastic centrifugal tube; 10 mL phosphate buffer solution was added into the centrifugal tube which was then put in an incubator (37° C., 100 rpm); ultraviolet absorption of the drug in the supernatant was recorded at a certain time interval.
The cumulative releasing percentages of the drug at different times are as below: […]

## CCCC1O[C@@H]2C[C@H]3[C@@H]4CCC5=CC(=O)C=C[C@]5(C)[C@H]4[C@@H](O)C[C@]3(C)[C@]2(C(=O)CO)O1 (stereo partly drawn) [Budesonide]
Day 7
  cumulative releasing percentage of the drug: 21%
Day 14
  cumulative releasing percentage of the drug: 40%
Day 21
  cumulative releasing percentage of the drug: 57%

## C[C@@H]1C[C@H]2[C@@H]3CCC4=CC(=O)C=C[C@]4(C)[C@@]3(F)[C@@H](O)C[C@]2(C)[C@@]1(O)C(=O)CO [Dexamethasone]
Day 7
  cumulative releasing percentage of the drug: 39%
Day 14
  cumulative releasing percentage of the drug: 61%
Day 21
  cumulative releasing percentage of the drug: 74%
